The values below come from PMC7819943, “Rice protein-binding microarrays: a tool to detect cis-acting elements near promoter regions in rice”.

Amino acid sequences for entries named in this document (tags omitted).
UniProt Q0JBA9, entry or part of it: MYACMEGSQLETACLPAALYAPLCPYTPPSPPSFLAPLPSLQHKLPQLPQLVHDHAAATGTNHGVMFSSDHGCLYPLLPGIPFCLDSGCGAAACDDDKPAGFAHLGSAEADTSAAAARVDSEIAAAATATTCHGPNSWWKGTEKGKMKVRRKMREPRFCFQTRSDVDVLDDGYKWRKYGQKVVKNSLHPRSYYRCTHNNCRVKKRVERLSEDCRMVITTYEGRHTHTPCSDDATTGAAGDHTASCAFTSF

This is one part of the list.

This experiment addresses OsWRKY34 (Oryza sativa, UniProt Q0JBA9 1-250). As to the kind of experiment: protein-binding microarray (RPBM); PBS, 2% BSA, 51.3 ng/ul salmon testes DNA, 50 uM zinc acetate, 200 nM TF, 25 C, 1 h; high values mean tight binding. The following applies: protein: recombinant; tags: N-terminal polyhistidine and DsRed monomer fusion (pET32a); label: CyDye5-dUTP incorporated in the synthesized complementary strand; 3' TTTTT single-stranded linker to array surface; dsDNA, one strand shown. An outline of the steps: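 For the binding signal, per-feature fluorescence intensity was read in arbitrary units on an Axon 4000B scanner. Before scanning, a 2% BSA-blocked custom Agilent array made double-stranded with Cy5-dUTP was washed after 1 h at 25 °C with 200 nM protein and 50 µM zinc acetate. The proteins were Ni–NTA-purified transcription factors with N-terminal polyhistidine and DsRed fusions, expressed in E. coli BL21-CodonPlus.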
Take “GTACTATTTCGCTTCGCCTCTCCTCTCTACCTCCGTCGCCCGGAGTCACCTAGTGCAG”: the binding signal was 8870 fluorescence intensity (a.u.). Under “GATACCGTTGACTTTTTAGCACATATTTGACCGTTCGTCTCGGAGTCACCTAGTGCAG” stands 39400 fluorescence intensity (a.u.); under “GAACCTAGAAATATTGTCTGTTTTCCTGCCGAACTGAACTCGGAGTCACCTAGTGCAG”, 9900 fluorescence intensity (a.u.); under “TGAAGTTGATTATAGGTTTATTTTTTATGTTGGTTTTTAACGGAGTCACCTAGTGCAG”, 10200 fluorescence intensity (a.u.). Consider “GCGCTCGTCGACGTCCTCCTGCGGTACATCTGCCAGCTCGCGGAGTCACCTAGTGCAG”, for which the binding signal is 8180 fluorescence intensity (a.u.).

Consider “TCATTGTGCTTTGAAAGGGCTGGGTGCAGTTGTTAATTTCCGGAGTCACCTAGTGCAG”, for which the binding signal was 12900 fluorescence intensity (a.u.).

In the case of “ACTAGTACTTTTGCATACCAAAACTTTTACTATTTGCCATCGGAGTCACCTAGTGCAG”, the binding signal was 8570 fluorescence intensity (a.u.).

Turning to “TTTCCTTTTACCTTTTCTCTTTGAAGAAAAAGAATTCGTCCGGAGTCACCTAGTGCAG”, the binding signal was 8240 fluorescence intensity (a.u.). For the sequence “TCTTTTCTTTGACTGTCATGTTGCACGTTTTGCTTGGCGACGGAGTCACCTAGTGCAG”, the binding signal was 10400 fluorescence intensity (a.u.). Under “CGTCAGTCATCACTTTACTAATTTGAACTGATGTCGATCGCGGAGTCACCTAGTGCAG” stands 8410 fluorescence intensity (a.u.). With “CCTGGTTGGTTTGGCTCGCACGTGGCGCGTCGTCCTACGCCGGAGTCACCTAGTGCAG”, the binding signal was 9870 fluorescence intensity (a.u.). For “GCAATCTTTGTGTTCCAACGGCTCCGCGGGTTCCATGCAACGGAGTCACCTAGTGCAG”, the binding signal is 8630 fluorescence intensity (a.u.). Then “TTATCTGCTTTGCTCGTTTCATCCAACGAGCCGAGCTACCCGGAGTCACCTAGTGCAG”, with 9240 fluorescence intensity (a.u.); and “TCTCTTTTGTGCACTTGGGAATGTAATTTTCTATCACTATCGGAGTCACCTAGTGCAG”, with 8870 fluorescence intensity (a.u.); and “ATCCATCCACCGCCACCACGCCGATCGATCTCCCCGCCGCCGGAGTCACCTAGTGCAG”, with 11100 fluorescence intensity (a.u.). Take “AATAACAACACCTTCCATAATATTTCTCCCAGGTATAACACGGAGTCACCTAGTGCAG”: the binding signal is 8840 fluorescence intensity (a.u.).

With “TTCCTATATTTCTTTTTTGGTTCTTGTATTTATCATCTGACGGAGTCACCTAGTGCAG”, the binding signal was 9480 fluorescence intensity (a.u.). Take “GATATGATATGATATTTGTTGGGTTAGTCGATATATTCATCGGAGTCACCTAGTGCAG”: the binding signal is 9300 fluorescence intensity (a.u.). Regarding “TTATGTTAACCTTGTTGTTTCTTACATTAATGCACATAATCGGAGTCACCTAGTGCAG”, the binding signal was 8940 fluorescence intensity (a.u.). Turning to “CCTCATCATCTGCCCGTGTCCACCGCCCACCGTCGGCCCGCGGAGTCACCTAGTGCAG”, the binding signal was 10100 fluorescence intensity (a.u.).

With “AGGTGGTGGTGGTGGCAGAGACGTGCGCTCGAACGATTTCCGGAGTCACCTAGTGCAG”, the binding signal was 9910 fluorescence intensity (a.u.). For the sequence “ACCCTAGCCACCCCGCGTCGCCCGCCTCGGCGCGCCCAAACGGAGTCACCTAGTGCAG”, the binding signal is 9260 fluorescence intensity (a.u.). With “CGCCATTGCCACCAAGTTCCCTATAGCACAACGACCTTATCGGAGTCACCTAGTGCAG”, the binding signal is 9200 fluorescence intensity (a.u.). Take “TGGTGGGCGGTGGAGTTATTTTCTTAATAGAGCATTGAGACGGAGTCACCTAGTGCAG”: the binding signal is 23900 fluorescence intensity (a.u.).

On to “CCGTTTTCATCCCTAGTCCGGCCACATTATTTGGAGACAACGGAGTCACCTAGTGCAG”, for which the binding signal was 8990 fluorescence intensity (a.u.).

Take “CACGGTAACTTTTAGTAGATGGGTTGGTGATATATTTTTTCGGAGTCACCTAGTGCAG”: the binding signal is 8370 fluorescence intensity (a.u.). Regarding “GTTGACTAGGAGGAGGAGGAGGAGGAGGAGGAGGAGGGATCGGAGTCACCTAGTGCAG”, the binding signal is 9160 fluorescence intensity (a.u.). In the case of “GATGTTTTCTTAGGTCTCTTTTGACTTTGAATGTGTTCCTCGGAGTCACCTAGTGCAG”, the binding signal was 8300 fluorescence intensity (a.u.). Then “TCACTTGCCCTTGCATTACTTACAACTTGCTTCACGAAAACGGAGTCACCTAGTGCAG”, with 8300 fluorescence intensity (a.u.); and “GATTCCCACATCTGGTTCTTCTACTTAGTGGCTTCGACCTCGGAGTCACCTAGTGCAG”, with 8920 fluorescence intensity (a.u.); and “CCCTGCTCTGCCACGCCCGCCACCGTCTGCCGGCCTCTACCGGAGTCACCTAGTGCAG”, with 10100 fluorescence intensity (a.u.). In the case of “GCTTGGACAAGTACTGCTTTTCTTGATCTTTTGCTTTACACGGAGTCACCTAGTGCAG”, the binding signal was 11900 fluorescence intensity (a.u.). With “TGCGATAGGTCTTCAGAAATGCCTCTGTGTTTATCATTGACGGAGTCACCTAGTGCAG”, the binding signal was 8180 fluorescence intensity (a.u.). With “TACGTACATACCACCCTGCGCTTGTCATCAAACAACGGTCCGGAGTCACCTAGTGCAG”, the binding signal is 9110 fluorescence intensity (a.u.). Under “TTGAACCTTCATCATCTGCAATTTTCCAGGTTTATTTTAACGGAGTCACCTAGTGCAG” stands 8330 fluorescence intensity (a.u.); under “AAAACTCCCTCCGATTTTATTTGTTTGATGTTGGTTAGTTCGGAGTCACCTAGTGCAG”, 12500 fluorescence intensity (a.u.); under “CGCCGCCGCTCCAGCTCCAGCCGCCCGTGCTCCCTCGCGGCGGAGTCACCTAGTGCAG”, 8200 fluorescence intensity (a.u.). Regarding “AATTCCACTTGTATTTTATTAGACTTACCTACATACAAATCGGAGTCACCTAGTGCAG”, the binding signal was 11200 fluorescence intensity (a.u.).

On to “CCCTTCTTTCTTTCTCTTTTCCCTCCCTTTCTTCTTTTTCCGGAGTCACCTAGTGCAG”, for which the binding signal was 8950 fluorescence intensity (a.u.). “TGTGTGGTTGCGCGGCCAATTTTAGTTCAGGCTTCAGGGCCGGAGTCACCTAGTGCAG”: the binding signal is 8610 fluorescence intensity (a.u.). Then “GACGAGAGCCCATGGACATCATCTTTTCGCTTATGCTTATCGGAGTCACCTAGTGCAG”, with 10200 fluorescence intensity (a.u.). For the sequence “CTTCCCATGTTTTTTTTAATTTCTAATTTTAGTTATTTGTCGGAGTCACCTAGTGCAG”, the binding signal was 9650 fluorescence intensity (a.u.).
